This note sets out measurements from paper PMC8269059, “Glycyrrhizin Derivatives Suppress Cancer Chemoresistance by Inhibiting Progesterone Receptor Membrane Component 1” (Cancers, 2021).

The chains behind the UniProt entries cited, without tags or fusion partners.
UniProt O00264: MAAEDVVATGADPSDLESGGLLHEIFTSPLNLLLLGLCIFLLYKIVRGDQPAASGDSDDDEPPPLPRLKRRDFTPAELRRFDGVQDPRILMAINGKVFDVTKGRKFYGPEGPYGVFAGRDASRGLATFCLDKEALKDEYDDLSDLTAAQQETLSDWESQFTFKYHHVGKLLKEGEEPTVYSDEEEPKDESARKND

Results are given in words; binding and its absence hold for the method and conditions named. Binding seen in cells or lysates may run through a third protein. Some binding calls cover weakened binding; strength is not graded here.

The target in assay [1] is FLAG-tagged PGRMC1 (progesterone receptor membrane component 1), full-length (human) (UniProt O00264). Kind of assay: co-IP; FLAG-PGRMC1 transfected into HCT116 cells; NP40 lysis buffer (20 mM Tris-HCl pH 7.5, 150 mM NaCl, 1% NP40); anti-FLAG (M2) agarose, 60 min, room temperature; western blotting (anti-FLAG, anti-EGFR, anti-LDLR, anti-PGRMC1); cells treated overnight (12 h) with GL or GlucoGL, or for 48 h with vehicle, 250 uM SA and/or 10 uM hemin. (In western blotting, separated proteins are transferred to a membrane and probed.)

The target is the same in assay [2]. Kind of assay: co-IP; FLAG-PGRMC1 transfected into HuH7 cells; NP40 lysis buffer; anti-FLAG (M2) agarose, 60 min, room temperature; western blotting; cells treated overnight with GL or GlucoGL.

Turning to “EGF receptor (EGFR), endogenous (from UniProt P00533 25-1210)”, the binding result in assay [1] and in assay [2] was “binds” in each case. Regarding “low-density lipoprotein receptor (LDLR), endogenous (from UniProt P01130 22-860)”, in assay [1], the binding entry was “binds”.
